Results from paper PMC11103573.
Like-named read-outs stand apart in the source and are kept apart here. Results are given in words; binding and its absence hold for the method and conditions named. Binding seen in cells or lysates may run through a third protein. A yes stands for co-enrichment or nearness to the bait. Other partners may have been found. For some assays here: A no says only that the protein was not detected with the bait. Values belong to the molecule of their own block, whether it stands above or below them.

Protein sequences, listed by entry. Tags and fused reporters are not part of them. Lines headed by an entry give the natural chain unless they say otherwise; changes in a name come on top.
UniProt Q88D21: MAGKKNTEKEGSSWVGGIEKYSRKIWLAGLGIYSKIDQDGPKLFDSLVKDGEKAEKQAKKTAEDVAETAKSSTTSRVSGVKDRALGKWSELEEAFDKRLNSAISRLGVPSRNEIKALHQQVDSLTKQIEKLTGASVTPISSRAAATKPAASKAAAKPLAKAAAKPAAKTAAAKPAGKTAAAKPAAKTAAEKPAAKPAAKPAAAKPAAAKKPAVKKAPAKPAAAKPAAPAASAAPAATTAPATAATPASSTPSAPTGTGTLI
UniProt Q88D22: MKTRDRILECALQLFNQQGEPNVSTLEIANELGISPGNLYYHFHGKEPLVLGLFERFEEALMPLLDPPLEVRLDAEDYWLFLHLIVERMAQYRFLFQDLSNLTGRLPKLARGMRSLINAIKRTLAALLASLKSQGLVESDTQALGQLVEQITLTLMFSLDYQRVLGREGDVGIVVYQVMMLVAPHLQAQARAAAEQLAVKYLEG

How the values were obtained:
[1] = target: T1, Poly granule-associated protein PhaI (Pseudomonas putida KT2440) (UniProt Q88D20); test: affinity purification with mass spectrometry; Round 1: baits PhaI, PhaD, PhaZ and PhaC1 with eYFP; cultures on nitrogen-limited media, harvested after 24 h; lysate on GFP-Trap agarose, 1 h at 4 °C, 10 mM Tris pH 8, 150 mM NaCl; on-bead trypsin digest, LCMS; compared with unfused eYFP null control
T1 sequence: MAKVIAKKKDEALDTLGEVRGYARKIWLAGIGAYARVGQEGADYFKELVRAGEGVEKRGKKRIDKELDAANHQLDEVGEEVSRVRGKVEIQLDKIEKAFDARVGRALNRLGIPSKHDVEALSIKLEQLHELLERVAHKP

[2] = target: PHA polymerase PhaC1 (Pseudomonas putida KT2440) (UniProt Q88D25); test: as above
[3] = target: T2, Peptidoglycan-associated lipoprotein, OprL/Pal (Pseudomonas putida KT2440) (UniProt P0A138); test: affinity purification with mass spectrometry; Round 2 (reverse orientation): baits PDH-E1, Q88F99 and OprL with eYFP; same APMS protocol as in the primary screen; compared with unfused eYFP null control
T2 sequence: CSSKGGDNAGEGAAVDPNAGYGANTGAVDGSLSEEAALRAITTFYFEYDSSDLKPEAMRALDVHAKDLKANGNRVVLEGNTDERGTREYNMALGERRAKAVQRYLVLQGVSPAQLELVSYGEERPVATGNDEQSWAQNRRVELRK

[4] = target: T3, Pyruvate dehydrogenase E1 component (Pseudomonas putida KT2440) (UniProt Q88QZ5); test: as above
T3 sequence: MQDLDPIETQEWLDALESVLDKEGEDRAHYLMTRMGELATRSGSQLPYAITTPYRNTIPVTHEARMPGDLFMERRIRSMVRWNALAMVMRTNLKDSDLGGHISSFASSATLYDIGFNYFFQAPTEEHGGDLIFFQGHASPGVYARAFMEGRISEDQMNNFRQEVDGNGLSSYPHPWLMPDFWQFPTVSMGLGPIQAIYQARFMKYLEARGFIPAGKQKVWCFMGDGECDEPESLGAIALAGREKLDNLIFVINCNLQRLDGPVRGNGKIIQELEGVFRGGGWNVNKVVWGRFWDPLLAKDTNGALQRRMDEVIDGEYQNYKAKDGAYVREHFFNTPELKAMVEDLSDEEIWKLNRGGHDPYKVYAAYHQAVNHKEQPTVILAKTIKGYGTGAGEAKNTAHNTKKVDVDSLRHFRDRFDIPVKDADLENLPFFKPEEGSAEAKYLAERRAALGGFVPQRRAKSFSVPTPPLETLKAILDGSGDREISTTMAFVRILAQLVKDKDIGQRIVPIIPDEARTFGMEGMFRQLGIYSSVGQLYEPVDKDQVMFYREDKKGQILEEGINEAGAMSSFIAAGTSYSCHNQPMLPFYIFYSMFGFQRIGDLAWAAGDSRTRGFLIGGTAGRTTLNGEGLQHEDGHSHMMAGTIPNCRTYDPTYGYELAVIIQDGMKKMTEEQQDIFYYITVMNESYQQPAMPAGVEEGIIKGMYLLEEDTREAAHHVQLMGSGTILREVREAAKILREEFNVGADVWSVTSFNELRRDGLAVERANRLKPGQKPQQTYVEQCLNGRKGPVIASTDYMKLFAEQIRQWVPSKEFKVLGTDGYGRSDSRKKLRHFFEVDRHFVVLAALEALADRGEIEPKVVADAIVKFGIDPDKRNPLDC

[5] = target: T1, Poly granule-associated protein PhaI (Pseudomonas putida KT2440); test: affinity purification with mass spectrometry; Round 1: baits PhaI, PhaD, PhaZ and PhaC1 with eYFP; cultures on nitrogen-limited media, harvested after 24 h; lysate on GFP-Trap agarose, 1 h at 4 °C, 10 mM Tris pH 8, 150 mM NaCl; on-bead trypsin digest, LCMS; compared with unfused eYFP null control; remark: listed apart in the source

Molecule: PHA depolymerase PhaZ (from UniProt Q88D24) (enzyme)
binding [1]: no binding
binding [2]: no binding

Molecule: PHA polymerase PhaC1 (from UniProt Q88D25) (enzyme)
binding [1]: no binding

Molecule: lipoamide dehydrogenase (E3) (Pseudomonas putida KT2440 (endogenous)) (enzyme)
binding [4]: no binding

B1: TolB (protein, UniProt P0A173 22-433)
chain: EEKNILVTSGSDRATPIAVVPFGLQGGSVLPEDIADIIGNDLRNSGYYSPIPRQNMISQPSQASEVIFRDWKALGAQYVMVGSIVPSGGRLQVQYALFNVATEQQVLTGSVAGSTDQLRDMAHYIADQSFEKLTGIKGAFSTRMLYVTAERFSTNNTRYTLQRSDYDGARAVTLLQSREPILSPRFAPDGKRIAYVSFEQKRPRIFVQNIDTGRREQVTNFEGLNGAPAWSPDGSRLAFVLSKDGNPDIYVMNVASRQISRVTAGPGINTEPFWGKDGNTLYFTSDRGGKPQIYKQSVSGGGAERVTFVGNYNANPKLSADEKTLVMIHRQQGFTNFKVAAQDLQRGSVKILSETSLDESPTVAPNGTMLIYATRQQGRGVLMLVSLNGRVRLPLPTAQGEVREPSWSPYLN
binding [3]: binds

B3: Pyruvate dehydrogenase E1 component (enzyme, UniProt Q88QZ5 1-881)
chain: T3 sequence
binding [5]: binds

More lines, now with the values ahead:

binding [3]: binds
binding [4]: binds
binding [1]: binds
Molecule: PHA granule-associated protein PhaF (from UniProt Q88D21)

binding [1]: binds
Molecule: Transcription factor PhaD (from UniProt Q88D22)

binding [4]: binds
B2: Poly granule-associated protein PhaI (protein, UniProt Q88D20 1-139)
chain: T1 sequence
